Data as given in PubChem BioAssay AID743454 (Peter MacCallum Cancer Centre, 2014).

Purpose: 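Knock-downs lowering viability or raising caspase 3/7 activity in vorinostat-treated resistant cells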 (primary screen)
Cell system: human HCT116-VR colon cancer cells, selected for vorinostat resistance
Knock-down reagent: siRNA pool against human genes, 40 nM siRNA pool
Time to read-out: vorinostat for 24 h, read-out about 72 h after transfection
Conditions: vorinostat at 2.5 µM final
Measurement: 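Cell viability by CellTiter-Fluor and caspase 3/7 activity by luminescence, each scaled to mock wells per plate, duplicates averaged, then robust z-scored over all plates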
Scale: viability robust z-score: higher = more viable cells than screen typical; caspase robust z-score: higher = more caspase 3/7 activity than screen typical
Hit rule: 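Hits are knock-downs in viability class RV1/RV2 or caspase class CA1/CA2, excluding ones that killed cells in the no-drug cell-count arm; hits then retested with single siRNAs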
Shown is one part, drawn at random, of about 18,000 reagents. 450 of all reagents (2.5%) count as active. 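Single biological run; no consistent viability z cut-off exists, so the class columns, not z-scores, define the calls.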 A number with no mark means an inactive call.

target gene | viability hit class | caspase hit class | viability robust z-score | caspase robust z-score
DNAJC15 | no change | no change | -0.36 | -1.34
RDH5 | no change | no change | 0.31 | 0.06
OR13C3 | no change | no change | 0.05 | 3.73
CEP70 | no change | no change | -0.02 | 0.26
CALCOCO2 | no change | no change | -0.44 | 1.9
IER3 | no change | no change | -0.82 | -0.6
GSPT2 | no change | no change | 1.21 | 0.14

Sorted by “viability robust z-score” (low to high): some entries from above
target gene | viability hit class | caspase hit class | viability robust z-score | caspase robust z-score
OR13C3 | no change | no change | 0.05 | 3.73
RDH5 | no change | no change | 0.31 | 0.06

Next results follow:
target gene | viability hit class | caspase hit class | viability robust z-score | caspase robust z-score
RORB | no change | no change | -2.42 | 2.17
SLC3A2 | no change | no change | 0.05 | 0.06
PPP1R14B | no change | no change | 0.84 | -0.14
SF3B6 | no change | no change | -4.82 | 0.32
PSMG2 | no change | no change | 1.35 | 1.45
HEPACAM2 | no change | no change | -0.7 | 1.04
SH2D1B | no change | no change | -0.58 | -0.64
BTBD10 | no change | no change | -1.35 | 0.46
AMOTL2 | no change | no change | -0.7 | -1.24
SPSB1 | no change | no change | 0.21 | 0.39
DIDO1 | no change | no change | 1.12 | 0.42
HSPBAP1 | no change | no change | 0.12 | -1.03
ZNF185 | no change | no change | 0 | 4.56
ZNF800 | no change | no change | 0.38 | -0.86
ZDHHC18 | no change | no change | -0.18 | -0.43
RIC8A | no change | no change | 0.28 | 4.75
